Measured values taken from patent US12673108B2 (Oxford University Innovation Limited, priority 2021, dated 2026).

Test: general procedure: Fmoc solid-phase peptide synthesis; Fmoc-beta-Ala-OH preloaded Wang resin (0.19 or 0.46 mmol g-1); PyBOP/NMM; PyBOP/HOAt/DIPEA (or HBTU) for PMO conjugation
Conditions: conjugation step, UV-Vis, based on PMO extinction coefficient

| Substance | conjugation yield [%] |
| --- | --- |
| Ac-RBRRBRFQILYRBHBH-(E)-PMO | 49 |
| Ac-RBRRBRRFQILYRBHBH-(E)-PMO | 27 |
| PMO-(E)-RBRRBRRFQILYRBHBH-NH2 | 48 |
| PMO-(Succ)-RBRRBRRFQILYRBHBH-NH2 | 64 |
